Values joined by “and” are separate entries in the source; they are usually repeats but may differ in a detail not shown here. Equal entries are not always repeated.
Tested on: rats
Assay: NORT, total exploratory time in T2 session
Format: in vivo, rat
[1] = 0.3 mg/kg i.p. 21 days + (+)MK-801 0.1 mg/kg (Table 10)
[2] = 1.0 mg/kg i.p. 21 days + (+)MK-801 0.1 mg/kg (Table 9)

| SMILES | total exploratory time in T2 session ± SEM ((+)MK-801 0.1 mg/kg + vehicle (Table 9), 0.1 mg/kg) | total exploratory time in T2 session ± SEM ((+)MK-801 0.1 mg/kg + vehicle (Table 10)) [s] | total exploratory time in T2 session ± SEM [1] [s] | total exploratory time in T2 session ± SEM [2] | total exploratory time in T2 session ± SEM (0.3 mg/kg i.p. 21 days + (+)MK-801 0.1 mg/kg (Table 9)) |
| --- | --- | --- | --- | --- | --- |
| C[C@]12N[C@H](Cc3ccccc31)c1ccccc12 [(+)MK-801] | 39.43 ± 3.40 s and 47.29 ± 3.63 s and 33.38 ± 2.32 s | 39.4 ± 3.4 |  |  |  |
| CN1CCN(c2nc(N)nc(C(C)(C)Sc3ccc4ccccc4c3)n2)CC1 [WA-22, 4-(4-methylpiperazin-1-yl)-6-(2-(naphthalen-2-ylthio)propan-2-yl)-1,3,5-triazin-2-amine] |  |  | 25.3 ± 4.5 | 43.62 ± 4.26 s |  |
| COc1cc2c(cc1OC)C(=O)C(CC1CCN(Cc3ccccc3)CC1)C2 (stereo not shown) [donepezil, reference compound] |  |  | 35.1 ± 3.6 | 40.54 ± 3.20 F(2.19) = 1.1727; NS s | 35.14 ± 3.62 F(2,18) = 0.6502; NS s |

Reference: paper PMC11926880, “Procognitive Potential of Neuroprotective Triazine 5-HT6 Receptor Antagonists Tested on Chronic Activity In Vivo in Rats: Computer-Aided Insight into the Role of Chalcogen-Differences on the Pharmacological Profile” (ACS Chemical Neuroscience, 2025)
